Paper PMC9922823
Results are given in words; binding and its absence hold for the method and conditions named. Binding seen in cells or lysates may run through a third protein. A yes stands for co-enrichment or nearness to the bait. Other partners may have been found. For some of these results: Tags and fused reporters may be left off the sequences shown.

Protein sequences, listed by entry. Tags and fused reporters are not part of them.
UniProt Q01939: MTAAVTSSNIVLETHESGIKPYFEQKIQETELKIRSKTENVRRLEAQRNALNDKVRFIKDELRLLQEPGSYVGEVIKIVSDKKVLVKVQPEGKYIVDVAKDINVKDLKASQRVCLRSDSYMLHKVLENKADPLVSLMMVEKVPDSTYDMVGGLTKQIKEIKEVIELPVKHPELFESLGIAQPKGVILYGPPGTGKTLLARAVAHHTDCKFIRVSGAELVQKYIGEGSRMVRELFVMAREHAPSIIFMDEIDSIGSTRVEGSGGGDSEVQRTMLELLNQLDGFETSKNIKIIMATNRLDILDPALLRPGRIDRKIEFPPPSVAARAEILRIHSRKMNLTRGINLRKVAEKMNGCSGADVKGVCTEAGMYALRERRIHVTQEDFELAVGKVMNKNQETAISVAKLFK

T1: His6-tagged Rpt3 (S. cerevisiae) (UniProt P33298)
T1 sequence: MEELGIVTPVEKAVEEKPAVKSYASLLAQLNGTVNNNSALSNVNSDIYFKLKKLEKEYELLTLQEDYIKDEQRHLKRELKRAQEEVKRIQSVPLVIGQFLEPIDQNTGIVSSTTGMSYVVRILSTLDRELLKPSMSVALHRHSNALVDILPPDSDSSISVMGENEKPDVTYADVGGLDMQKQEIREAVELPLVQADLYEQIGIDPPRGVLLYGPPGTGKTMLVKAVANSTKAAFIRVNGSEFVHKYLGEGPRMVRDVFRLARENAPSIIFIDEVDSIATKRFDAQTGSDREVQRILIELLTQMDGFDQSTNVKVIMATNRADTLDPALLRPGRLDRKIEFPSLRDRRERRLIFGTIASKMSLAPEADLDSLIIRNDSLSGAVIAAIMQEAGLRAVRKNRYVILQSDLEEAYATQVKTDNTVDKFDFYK


What was measured:
[1] = biological target: Rpt6 harboring a GFP-3xFLAG tag (S. cerevisiae) (UniProt Q01939); assay: affinity purification with mass spectrometry; Rpt6 with GFP-3xFLAG tag as bait from yeast lysate; anti-FLAG M2-agarose, proteasome buffer pH 7.5, 150 mM NaCl, 1 mM ATP, FLAG peptide elution; 5% native-PAGE, proteomics of the complexes
[2] = biological target: T1, His6-tagged Rpt3 (S. cerevisiae); assay: affinity purification with mass spectrometry; His6-Rpt3 as bait from lysate of E. coli coexpressing nine base subunits and four chaperones; TALON resin, 300 mM NaCl, pH 7.0, 0.2% Triton X-100, 150 mM imidazole elution, 1 mM ATP; band cut from 5% native-PAGE for proteomics

Row | binding [1] | binding [2] | Binder
1 | binds | binds | Rpn13 (protein, UniProt O13563 1-156) MSMSSTVIKFRAGVCEYNEDSRLCTPIPVQGEIEIKPNEEEELGFWDFEWRPTEKPVGRELDPISLILIPGETMWVPIKSSKSGRIFALVFSSNERYFFWLQEKNSGNLPLNELSAKDKEIYNKMIGVLNNSSESDEEESNDEKQKAQDVDVSMQD
2 | binds | binds | Rpn2 (protein, UniProt P32565 1-945) MSLTTAAPLLALLRENQDSVKTYALESINNVVDQLWSEISNELPDIEALYDDDTFSDREMAALIASKVYYNLGEYESAVKYALAAKDRFDIDEKSQFVETIVSKSIEMYVQEASKQYTKDEQFYTKDIIDPKLTSIFERMIEKCLKASELKLALGIALEGYRLDIIESALKSKLDQDSTSENVKIINYLLTLAITTVTNSKFRSSILRKSFDFLMNMPNCDYLTLNKVVVNLNDAGLALQLFKKLKEENDEGLSAQIAFDLVSSASQQLLEILVTELTAQGYDPALLNILSGLPTCDYYNTFLLNNKNIDIGLLNKSKSSLDGKFSLFHTAVSVANGFMHAGTTDNSFIKANLPWLGKAQNWAKFTATASLGVIHKGNLLEGKKVMAPYLPGSRASSRFIKGGSLYGLGLIYAGFGRDTTDYLKNIIVENSGTSGDEDVDVLLHGASLGIGLAAMGSANIEVYEALKEVLYNDSATSGEAAALGMGLCMLGTGKPEAIHDMFTYSQETQHGNITRGLAVGLALINYGRQELADDLITKMLASDESLLRYGGAFTIALAYAGTGNNSAVKRLLHVAVSDSNDDVRRAAVIALGFVLLRDYTTVPRIVQLLSKSHNAHVRCGTAFALGIACAGKGLQSAIDVLDPLTKDPVDFVRQAAMIALSMILIQQTEKLNPQVADINKNFLSVITNKHQEGLAKFGACVAQGIMNAGGRNVTIQLENADTGTLDTKSVVGLVMFSQFWYWFPLAHFLSLSFTPTTVIGIRGSDQAIPKFQMNCYAKEDAFSYPRMYEEASGKEVEKVATAVLSTTARAKARAKKTKKEKGPNEEEKKKEHEEKEKERETNKKGIKETKENDEEFYKNKYSSKPYKVDNMTRILPQQSRYISFIKDDRFVPVRKFKGNNGVVVLRDREPKEPVALIETVRQMKDVNAPLPTPFKVDDNVDFPSA
